For some of these results: Strings that start with PEPTIDE1 are HELM notation: dots part the residues, brackets hold end groups and non-standard residues.
Assays:
[1] = general procedure: Fmoc solid-phase peptide synthesis; 2-chlorotrityl resin; HATU/DIPEA; conditions: whole synthesis, scale 0.8 mmol
[2] = general procedure: Fmoc solid-phase peptide synthesis; Rink resin; HATU/DIPEA; conditions: whole synthesis; for final LC-MS purity: LCMS analysis
[3] = solid-phase peptide synthesis; conditions: late stage modification step, LCMS analysis
[4] = scale 0.20 mmol scale (2×0.1 mmol)

Substance: ClAc-Tyr-[N-Me]Ala-Asn-Pro-Ser-Gln-Hyp-Trp-Ser-Trp-[N-Me]Nle-[N-Me]Nle-Leu-Cys-Gly
- final LC-MS purity ([1]; LCMS analysis): 97%
- isolated mass [1]: 29.3 mg

Substance: ClAc-Tyr-mAla-Asn-Pro-Dap-Leu-Hyp-Trp-Gly-Trp-mNle-mNle-Leu-Cys-Sar
- final LC-MS purity ([2]; scale 0.2 mmol): 95%
- isolated mass ([2]; scale 0.2 mmol): 36.4 mg

Substance: ClAc-Tyr-mAla-Asn-Pro-Dap-Leu-Hyp-Trp-Gly-Trp-mNle-mNle-Leu-Cys-Sarc
- final LC-MS purity [2, 4]: 95%
- isolated mass [2, 4]: 36.4 mg

Substance: PEPTIDE1{[CH2CO].Y.[NMeAla].N.P.[Dap].L.[Hyp].W.G.W.[NMeNle].[NMeNle].L.C.G.[NH-Pr-morpholine]}$PEPTIDE1,PEPTIDE1,1:R3-15:R3$$$V2.0
- final LC-MS purity [3]: 94%

Substance: PEPTIDE1{[CH2CO].Y.[NMeAla].N.P.[Dap].L.[Hyp].W.G.W.[NMeNle].[NMeNle].L.C.G.[NHEtOPh]}$PEPTIDE1,PEPTIDE1,1:R3-15:R3$$$V2.0
- final LC-MS purity [3]: 92%

Substance: PEPTIDE1{[CH2CO].Y.[NMeAla].N.P.[Dap].L.[Hyp].W.G.W.[NMeNle].[NMeNle].L.C.G.[NHPrN(EtOH)2]}$PEPTIDE1,PEPTIDE1,1:R3-15:R3$$$V2.0
- final LC-MS purity [3]: 100%

Substance: PEPTIDE1{[CH2CO].Y.[NMeAla].N.P.[Dap].L.[Hyp].W.G.W.[NMeNle].[NMeNle].L.C.G.[NHcBu]}$PEPTIDE1,PEPTIDE1,1:R3-15:R3$$$V2.0
- final LC-MS purity [3]: 95%

From patent publication US9809625B2 (BRISTOL-MYERS SQUIBB COMPANY, priority 2015, dated 2017)
